# The campaign covered roughly 360,000 compounds. About 7,500 (2.1%) were called active. Inconclusive means that the source gave no clear call. Such entries were picked first, then a sample of the others. Calls follow the shape of the dose curve; as a rule, active = well fitted inhibition curve with a large enough effect; inconclusive = small, poorly fitted or top-dose-only effect, or effect the other way; inactive = flat fitted curve, though single readings scatter. Potencies beside an inconclusive call are fits to weak or partial responses and may not hold up.
# Assay: Nrf2 qHTS screen for inhibitors; also: nearly all actives have a fitted effect of over 60% in size
# Details: A549 ARE-Fluc reporter, luciferase luminescence, 18-24 h; activity change, negative = inhibition: at 46 µM (top of the series)
# How it was run: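 Nrf2 activity is the BugLite luminescence, read 15 min after reagent at room temperature, following CellTiter-Fluor cytotoxicity readout (30 min, 37C). Compound titrations were applied for 18-24 h to 5000 A549 ARE_Fluc cells/well in 5% FBS OPTI-MEM.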
# % is scaled to controls: 0 for no effect and ±100 for the full control effect; potency is read from the fitted curve at half-maximal effect.
Compound,"activity change, negative = inhibition",Potency
CNCc1ccccc1Sc1ccc(OC)cc1,inactive: -3.94%,–
CC(=O)Oc1c(C)c(=O)n(C)c2ccccc12,–,"inconclusive: 0.146 µM [falling, full curve, poor fit]"
Cc1nn2c(COc3ccc(NC(=O)c4ccccc4Cl)cc3)nnc2c2ccccc12,–,"inconclusive: 16.4 µM [falling, partial curve, poor fit]"
CC(C)(C)OC(=O)[C@H](Cc1ccccc1)NC(=O)c1nc[nH]c1C(=O)N[C@@H](Cc1ccccc1)C(=O)OC(C)(C)C,–,"inconclusive: 29.1 µM [falling, single point]"
Cc1ccc(CSCCNC(=O)c2ccc(N(C)S(=O)(=O)c3ccccc3)cc2)cc1,–,"inconclusive: 20.6 µM [falling, single point]"
CC[C@]12c3[nH]c4ccccc4c3CCN1C(=O)C(CC(=O)NCC13CC4CC(CC(C4)C1)C3)C[C@@H]2C(=O)N1CCN(C(=O)c2ccco2)CC1 (stereo not given in full),–,"inconclusive: 16.4 µM [falling, single point]"
CCCCCC1(C(=O)OCC)CC(CSC(=N)N)OC1=O (stereo not given),inactive: 1.89%,–
COc1ccc(CN(CC2CCC(C(=O)O)CC2)C(=S)Nc2ccc(C)c(Cl)c2)cc1 (stereo not given),–,"inconclusive: 10.3 µM [falling, partial curve, poor fit]"
O=C(OCc1ccc(F)cc1)c1cc(=O)c2ccccc2o1,–,"inconclusive: 0.82 µM [activator, full curve]"
CC(C)=C1SC(N2CCN(c3ccc(C)cc3)CC2)=NC1=O,–,"inconclusive: 6.51 µM [falling, partial curve, poor fit]"
Cc1ccc(C)n1-c1ccc(C(=O)NC2CCN(Cc3ccccc3)CC2)cc1,–,"inconclusive: 23.1 µM [falling, partial curve]"
C[C@]12C=CC(=O)C=C1CC[C@@H]1C2[C@@H](O)C[C@@]2(C)C1CC[C@]2(O)C(=O)COC(=O)CCC(=O)O (stereo not given in full),–,active: 0.13 µM
Cc1ccc2nc(NC(=O)C3CSC4(C)CCC(=O)N34)sc2c1 (stereo not given),–,"inconclusive: 0.206 µM [activator, full curve, poor fit]"
CCCNC(=O)c1oc2ccc3c(c2c1C)C(O)CC(C)(C)O3 (stereo not given),–,"inconclusive: 3.66 µM [activator, full curve, poor fit]"
O=C(Nc1csc([N+](=O)[O-])c1)Nc1c(Cl)cccc1Cl,–,"inconclusive: 29.1 µM [falling, single point]"
CC(C)CN1CCC(=O)N([C@H](CO)Cc2ccccc2)CC1,inactive: 8.97%,–
CC(NC(=O)c1cccc(S(=O)(=O)N2CCN(Cc3ccccc3)CC2)c1)c1ccc(Cl)cc1 (stereo not given),–,"inconclusive: 16.4 µM [falling, partial curve, poor fit]"
CCOC(=O)c1c(-c2ccc(C)o2)csc1NC(=O)COC(=O)c1ccc(NC(N)=O)cc1,–,active: 16.4 µM
Cc1cccn2c(CNC3CCCc4ccccc43)c(C(=O)N3CCOCC3)nc12 (stereo not given),–,"inconclusive: 18.4 µM [falling, partial curve, poor fit]"
CC(=O)c1c(C)[nH]c(C(=O)Nc2c(C)n(C)n(-c3ccccc3)c2=O)c1C,–,"inconclusive: 7.31 µM [activator, partial curve]"
CCOC(=O)c1ccccc1NC(=O)c1sc2ccccc2c1Cl,–,"inconclusive: 9.2 µM [activator, partial curve]"
COc1ccc(N=Nc2c(N)nn(C)c2N)cc1,–,"inconclusive: 5.8 µM [activator, full curve]"

# Molecules above containing a furan ring, fused or not, in the order listed:
Compound,"activity change, negative = inhibition",Potency
CC[C@]12c3[nH]c4ccccc4c3CCN1C(=O)C(CC(=O)NCC13CC4CC(CC(C4)C1)C3)C[C@@H]2C(=O)N1CCN(C(=O)c2ccco2)CC1 (stereo not given in full),–,"inconclusive: 16.4 µM [falling, single point]"
CCCNC(=O)c1oc2ccc3c(c2c1C)C(O)CC(C)(C)O3 (stereo not given),–,"inconclusive: 3.66 µM [activator, full curve, poor fit]"
CCOC(=O)c1c(-c2ccc(C)o2)csc1NC(=O)COC(=O)c1ccc(NC(N)=O)cc1,–,active: 16.4 µM

# (more compounds)

Compound,"activity change, negative = inhibition",Potency
Cc1ccccc1-n1c(=O)c2c3c(sc2n2cnnc12)CCCC3,–,"inconclusive: 13 µM [falling, partial curve, poor fit]"
CCOc1ccc(S(=O)(=O)N2CC(=O)Nc3ccccc32)cc1,inactive: -16.9%,–
CC(=O)N1CCc2c(sc(NC(=O)C3CCCN3S(=O)(=O)c3cccs3)c2C(N)=O)C1 (stereo not given),–,"inconclusive: 18.4 µM [falling, single point]"
COc1ccc(CNC(=O)C2CCN(c3nnc(-n4cccc4CNc4ccc(C)cc4)s3)CC2)c(OC)c1,–,"inconclusive: 10.3 µM [falling, partial curve, poor fit]"
CCc1ccc(C(=O)Nc2cc(C)on2)o1,–,"inconclusive: 20.6 µM [activator, partial curve]"
Cc1ccc(OCCn2c(NC(=O)c3ccco3)nc3ccccc32)cc1,inactive: -25.4%,–
O=S(=O)(c1ccc(F)cc1)N1CCC(n2c(C(F)(F)F)nc3cccnc32)CC1,–,active: 20.6 µM
Cc1ccc(S(=O)(=O)c2nc(-c3cccc(C)c3)oc2N2CCCCC2)cc1,–,"inconclusive: 23.1 µM [falling, partial curve, poor fit]"
Cc1nn(Cc2ccccc2)c(C)c1C(=O)NCC(c1cccs1)N1CCOCC1 (stereo not given),inactive: 6.05%,–
COc1ccc(C(=O)Nc2cc(OC)cc(OC)c2)cc1,–,"inconclusive: 2.59 µM [activator, full curve]"
COC(=O)c1ccc(COC(=O)CCC(=O)c2cccs2)cc1,–,"inconclusive: 16.4 µM [activator, single point]"
CCOC(=O)c1c(C)n(C)c2ccc(OCC(O)CN(CC)CC)cc12 (stereo not given),inactive: -0.749%,–
C/C(=N\N=C1\NC(=O)CC(C(=O)O)S1)c1cccs1 (stereo not given),–,"inconclusive: 4.61 µM [falling, full curve, poor fit]"
Cc1cccc(CSC2=NCCN2S(=O)(=O)c2ccc(F)cc2)c1,–,"inconclusive: 29.1 µM [falling, partial curve, poor fit]"
O=C(/C=C/Nc1nccs1)C(F)(F)Cl,–,"inconclusive: 16.4 µM [activator, single point]"
COC(=O)c1ccc(Nc2ccc3nonc3c2[N+](=O)[O-])cc1,inactive: 6.08%,–
COc1ccc(NS(=O)(=O)c2ccc3c(c2)n(C)c(=O)n3C)cc1,–,"inconclusive: 4.11 µM [falling, full curve]"
O=C(/C=C/c1ccc([N+](=O)[O-])cc1)N1CCN(c2ccccc2F)CC1,–,"inconclusive: 29.1 µM [activator, single point]"
COc1ccc(C(=O)n2nc(C)cc2Nc2ccccc2)cc1,–,"inconclusive: 11.6 µM [activator, partial curve, poor fit]"
COc1cc(CCC(=O)OCC(=O)Nc2c(F)cccc2F)cc(OC)c1OC,inactive: -34.1%,–
Cc1cc(=S)c2ccccc2[nH]1,–,"inconclusive: 0.184 µM [falling, full curve, poor fit]"
Cn1c(-c2ccc(C=O)s2)nc2ccccc21,–,"inconclusive: 29.1 µM [activator, single point]"

Compound,"activity change, negative = inhibition",Potency
Cc1ccc(C(C(=O)NC2CCCC2)N(Cc2cccs2)C(=O)CNC(=O)c2cccs2)o1 (stereo not given),–,"inconclusive: 16.4 µM [falling, partial curve, poor fit]"
CC1=CSC2=NC(=O)/C(=C\c3cccn3-c3ccc([N+](=O)[O-])cc3)C(=N)N12,–,"inconclusive: 29.1 µM [falling, single point]"
CCc1cccc2c(C(=O)CN3C(=O)NC4(CCCCC4)C3=O)c[nH]c12,–,"inconclusive: 29.1 µM [falling, partial curve, poor fit]"
Cc1c(C(=O)N(Cc2ccc(F)cc2)C2CCS(=O)(=O)C2)oc2ccccc12 (stereo not given),–,"inconclusive: 11.6 µM [falling, partial curve, poor fit]"
C=C1C(=O)O[C@@H]2[C@H]3O[C@]3(C)CC/C=C(\C)CC[C@@H]12,inactive: -8.57%,–
CCCNC(=S)Nc1ccc(Nc2ccccc2)cc1,–,"inconclusive: 4.61 µM [falling, full curve, poor fit]"
CC1=C(C(=O)OC(C)C)C(c2ccc(C)o2)C(C(=O)OC(C)C)=C(C)N1,inactive: 0.0453%,–
O=C(Cn1c(=O)n(-c2ccccc2)c(=O)c2oc3ccccc3c21)Nc1ccccc1,inactive: -2.37%,–
CCCCn1cc([N+](=O)[O-])nc1C,–,"inconclusive: 20.6 µM [falling, single point]"
Cc1ccc([N+](=O)[O-])c(C(=O)N/N=C/c2cccs2)c1,–,active: 9.2 µM
O=C(CN(CCc1ccccc1)S(=O)(=O)c1ccccc1)NCc1ccc(Cl)cc1,–,active: 20.6 µM
Cc1c(C(=O)N2CCCc3ccccc32)oc2ccccc12,–,"inconclusive: 23.1 µM [activator, partial curve]"
COc1cc(CNc2ccc3c(c2)ncn3C(C)C)cc(OC)c1OC,–,"inconclusive: 29.1 µM [falling, single point]"
COc1ccccc1CCNC(=O)C(=O)NCC1OCCN1C(=O)c1ccc(Cl)cc1 (stereo not given),–,"inconclusive: 18.4 µM [falling, partial curve, poor fit]"
CCOc1ccc(/C=C/C(=O)c2ccccc2)cc1,–,"inconclusive: 3.66 µM [activator, partial curve]"
COc1cc(-c2n[nH]c(=S)n2-c2cc(C(F)(F)F)ccc2Cl)cc(OC)c1OC,inactive: -4.46%,–
O=C(c1ccccc1)N1CCOC12CCN(c1ncc(C(F)(F)F)cc1Cl)CC2,–,"inconclusive: 29.1 µM [falling, single point]"
CC(=O)Nc1cccc(S(=O)(=O)N2CCCN(S(=O)(=O)c3ccc4c(c3)OCCO4)CC2)c1,–,active: 14.6 µM
CCCc1ccc(-c2cc(NC(=O)CSc3n[nH]c(N)n3)n(-c3ccccc3)n2)cc1,–,"inconclusive: 5.17 µM [falling, single point]"
O=C(CSc1nc2ccccc2c(=O)[nH]1)c1cccs1,–,"inconclusive: 2.31 µM [falling, full curve, poor fit]"
Fc1ccccc1OCc1nc(-c2ccc(-n3cccc3)cc2)no1,–,"inconclusive: 4.11 µM [falling, full curve, poor fit]"

# — PubChem BioAssay AID504444 (National Center for Advancing Translational Sciences (NCATS), 2011)
